# Assay results from patent US6342219B1 (Board of Regents, The University of Texas System, priority 1999, dated 2002).
# Some entries share one result that the patent states for a list of compounds.
# Tested on: VEGF-induced permeability
# Assay: Miles permeability assay
# Details: guinea pig, in vivo
substance,measurement,value
"2C3: anti-VEGF monoclonal antibody, IgG2a, k, produced by hybridoma ATCC PTA 1595; blocks VEGF binding to VEGFR2 but not VEGFR1 [Clone 2C3]",Molar excess of IgG over VEGF at which VEGF-induced permeability was inhibited,≥ 10 fold molar excess
